Assay results

Data taken from PubChem BioAssay AID912, deposited by NCATS (2007).

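A cell-based FRET test of anthrax lethal toxin entry, tracked through the 460 nm emission signal; the cell line is not named here.
Each compound was tested as a concentration series from about 0.0005 to 40 µM.
The number is the fitted AC50 of the 460 nm signal alone; lower values mean a more potent effect. A falling signal goes with compounds filed as inhibitors or cytotoxic, a rising one with activators or fluorescent compounds (inferred from the filed classes).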

Values are in µM.
Common to all entries: measured here: 460 nm channel.
Part of the compounds only, not a random draw; the main read-out is not listed here.
Potencies fitted to partial, single-point or poorly fitting curves are rough.
The first word of each remark tells which way the curve ran; it can be opposite to the aim of the assay.

SMILES | AC50 (µM) | remark
CC(C)N(Cc1nc(-c2ccc(Cl)cc2)no1)C(=O)C12CC3CC(CC(C3)C1)C2 | 0.00631 | falling, full curve, poor fit
COCCSc1ccccc1C(=O)Nc1nnc(COC)s1 | 0.003981 | falling, full curve, poor fit
COc1ccc(-c2csc3c2[N+]2=CCC=C2C3=O)cc1 | 3.162 | falling, partial curve
Cc1cc(C)c(O)c(-c2cc(C(=O)Nc3ccc(S(=O)(=O)N4CCOCC4)cc3)[nH]n2)c1 | 12.59 | falling, partial curve
CC(C)(O)/C=C\C(=O)[C@](C)(O)[C@H]1[C@H](O)C[C@]2(C)[C@@H]3CC=C4[C@@H](C=C(O)C(=O)C4(C)C)[C@]3(C)C(=O)C[C@@]12C | 0.03981 | falling, full curve
CCOC(=O)CNC(=O)c1sc2nc(C)cc(C)c2c1N | 0.05012 | falling, full curve, poor fit
N/C(=N\c1nc2ccccc2o1)NC(=O)C(Cc1ccccc1)N1C(=O)c2ccccc2C1=O (centres unmarked) | 7.943 | falling, partial curve
c1ccc2oc(NC3=NCN(CC4CCCO4)CN3)nc2c1 (centres unmarked) | 1.995 | falling, partial curve, poor fit
O=C(CN1CCOCC1)Nc1nc(-c2ccc3c(c2)CCN3S(=O)(=O)c2ccccc2)cs1 | 31.62 | falling, single point
COc1cc(-c2nnc(COC(=O)C3c4ccccc4Oc4ccccc43)o2)cc(OC)c1OC | 0.02512 | falling, full curve, poor fit
COC(=O)[C@@]1(Cc2ccc(F)cc2)[C@H]2c3cc(C(=O)N(C)C)n(CCc4ccc(O)c(O)c4)c3C[C@H]2CN1C(=O)c1ccccc1 | 12.59 | rising, partial curve
C=CCn1c(N)c(C(=O)OCC(C)C)c2nc3ccccc3nc21 | 1.585 | rising, partial curve
COc1cccc(-n2c(SC3CCOC3=O)nc3ccccc3c2=O)c1 (centres unmarked) | 5.012 | rising, partial curve
C/C(=N\O)C(=O)OC1CC(C)CCC1C(C)C (centres unmarked) | 12.59 | falling, single point
O=C(NC1CC2CCCC(C1)N2C(=O)Nc1ccccc1)c1ccncc1 (centres unmarked) | 5.012 | falling, single point
COCC(C)n1c(SCC(=O)NC(=O)Nc2ccc3c(c2)OCCO3)nc2ccccc2c1=O (centres unmarked) | 10 | rising, partial curve
COc1c2ccoc2cc2oc(=O)ccc12 | 31.62 | falling, single point
Cc1nc2ccccc2c2oc(C(=O)NCc3ccc4c(c3)OCO4)cc12 | 12.59 | falling, partial curve
C=CCSc1nc2ccccc2c(=O)n1Cc1ccco1 | 5.012 | rising, single point
CC(C)Sc1oc(-c2ccco2)nc1S(=O)(=O)c1ccccc1 | 7.943 | falling, partial curve
O=C(c1ccc(F)cc1)C1CCN(CCn2c(=S)[nH]c3ccccc3c2=O)CC1 | 0.01995 | rising, full curve, poor fit
Cc1cccc(C)c1NC(=O)Nc1cccs1 | 15.85 | falling, partial curve
COc1ccc(CCNC(=O)C2CCN(Cc3nc(-c4cccc(Cl)c4)oc3C)CC2)cc1OC | 12.59 | rising, single point
CCOC(=O)Cn1cnc2c(nnn2-c2ccc(C)cc2)c1=O | 7.943 | rising, partial curve
O=C(CSc1nnc(-c2ccco2)n1CC1CCCO1)NC1CCCC1 (centres unmarked) | 1.995 | rising, partial curve
O=C(NC1CCCC1)C(c1cccnc1)N(C(=O)c1csnn1)C1CC1 (centres unmarked) | 3.162 | rising, single point
NC(=O)C1(N2CCCCC2)CCN(C(=O)c2cccn3c(=O)c4cc(Cl)ccc4nc23)CC1 | 7.943 | rising, partial curve
Ic1ccccc1CN[C@@H]1C2CCN(CC2)[C@H]1C(c1ccccc1)c1ccccc1 | 15.85 | falling, partial curve
CCOC(=O)C1=C(O)C(=O)N(c2ccc(S(N)(=O)=O)cc2)C1c1ccc(OC)cc1OC (centres unmarked) | 1.995 | falling, full curve, poor fit
CN(Cc1ccccc1)c1oc(-c2ccco2)nc1C#N | 0.3981 | falling, partial curve
COc1ccccc1CCn1c(=O)c(-c2ccc(Cl)cc2)nc2cncnc21 | 10 | falling, partial curve
CCN1CCN(Cc2nc3c(c(=O)n(C)c(=O)n3C)n2Cc2ccc(Cl)cc2Cl)CC1 | 12.59 | falling, partial curve
C=CCn1c(C)cc(C(=O)CSc2nc3ccccc3c(=O)[nH]2)c1C | 12.59 | falling, single point
COC(=O)C1=C(N)Oc2cc(C)n(CCCn3ccnc3)c(=O)c2C1c1cccc(Cl)c1 (centres unmarked) | 0.01995 | rising, full curve, poor fit
Cn1c(Cn2cnc3ccccc32)nnc1SCc1ccccc1 | 0.631 | falling, full curve
CCCCc1cc(=O)oc2c(CN(C)C)c(O)ccc12 | 15.85 | rising, partial curve, poor fit
COc1ncc2nc(-c3cn(C)c4ccccc34)c(=O)n(Cc3ccc(F)cc3)c2n1 | 1.259 | rising, full curve
CCN1CCCC1CNC(=O)C1CCN(Cc2nc(-c3cccc(Br)c3)oc2C)CC1 (centres unmarked) | 2.512 | falling, full curve
COc1ccc(-n2c(N)c(C(=O)NCC3CCCO3)c3nc4ccccc4nc32)c(OC)c1 (centres unmarked) | 5.012 | rising, single point
O=C1CC(N2CCN(c3ccc(Cl)c(Cl)c3)CC2)C(=O)N1 (centres unmarked) | 0.3981 | falling, partial curve
Cc1ccc(-n2sc3ccccc3c2=O)cc1S(=O)(=O)N1CCCCC1 | 0.1585 | falling, full curve
COc1ccc(OC)c2sc(NC(=O)C3CC3)nc12 | 12.59 | rising, single point
CCn1c2ccccc2c2cc(CN3CCN(C(=O)c4ccco4)CC3)ccc21 | 31.62 | falling, single point